This note sets out measurements from article PMC10746952.

By UniProt entry, the sequences of proteins in these tests, tags left out.
UniProt Q8R4B8: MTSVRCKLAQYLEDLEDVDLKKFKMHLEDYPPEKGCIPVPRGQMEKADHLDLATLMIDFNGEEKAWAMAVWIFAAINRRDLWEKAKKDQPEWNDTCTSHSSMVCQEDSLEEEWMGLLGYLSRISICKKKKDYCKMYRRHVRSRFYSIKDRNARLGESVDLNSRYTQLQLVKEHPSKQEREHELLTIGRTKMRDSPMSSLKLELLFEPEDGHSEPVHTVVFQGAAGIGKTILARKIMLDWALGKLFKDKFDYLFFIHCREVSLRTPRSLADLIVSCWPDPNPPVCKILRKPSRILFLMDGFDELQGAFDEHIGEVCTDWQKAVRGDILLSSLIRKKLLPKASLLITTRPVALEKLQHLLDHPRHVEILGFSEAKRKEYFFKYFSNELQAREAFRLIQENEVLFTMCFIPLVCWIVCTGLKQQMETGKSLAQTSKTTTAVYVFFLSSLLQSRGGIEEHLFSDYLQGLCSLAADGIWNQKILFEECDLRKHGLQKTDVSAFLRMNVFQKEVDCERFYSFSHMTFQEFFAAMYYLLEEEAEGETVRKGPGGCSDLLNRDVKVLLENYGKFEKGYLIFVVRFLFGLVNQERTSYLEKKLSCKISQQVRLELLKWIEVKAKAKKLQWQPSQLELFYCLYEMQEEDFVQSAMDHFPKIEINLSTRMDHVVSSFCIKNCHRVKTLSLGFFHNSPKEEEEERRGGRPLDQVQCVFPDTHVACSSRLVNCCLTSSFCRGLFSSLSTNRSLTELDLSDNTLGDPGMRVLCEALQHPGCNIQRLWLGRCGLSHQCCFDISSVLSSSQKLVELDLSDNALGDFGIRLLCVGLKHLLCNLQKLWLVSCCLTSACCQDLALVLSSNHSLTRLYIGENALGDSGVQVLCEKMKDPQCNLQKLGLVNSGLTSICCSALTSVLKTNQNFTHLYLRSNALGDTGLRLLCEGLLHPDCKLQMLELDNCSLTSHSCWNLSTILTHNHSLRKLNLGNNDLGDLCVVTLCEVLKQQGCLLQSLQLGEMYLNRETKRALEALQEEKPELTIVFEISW

These are yes or no findings as the source states them, for the method shown. In cells and extracts the contact can be indirect. Some binding calls cover weakened binding; strength is not graded here. Tags and fused reporters may be left off the sequences shown.

The target in this experiment is T1, Flag-tagged mouse elongator complex protein 2 (ELP2) (mouse) (UniProt Q91WG4).
T1 sequence: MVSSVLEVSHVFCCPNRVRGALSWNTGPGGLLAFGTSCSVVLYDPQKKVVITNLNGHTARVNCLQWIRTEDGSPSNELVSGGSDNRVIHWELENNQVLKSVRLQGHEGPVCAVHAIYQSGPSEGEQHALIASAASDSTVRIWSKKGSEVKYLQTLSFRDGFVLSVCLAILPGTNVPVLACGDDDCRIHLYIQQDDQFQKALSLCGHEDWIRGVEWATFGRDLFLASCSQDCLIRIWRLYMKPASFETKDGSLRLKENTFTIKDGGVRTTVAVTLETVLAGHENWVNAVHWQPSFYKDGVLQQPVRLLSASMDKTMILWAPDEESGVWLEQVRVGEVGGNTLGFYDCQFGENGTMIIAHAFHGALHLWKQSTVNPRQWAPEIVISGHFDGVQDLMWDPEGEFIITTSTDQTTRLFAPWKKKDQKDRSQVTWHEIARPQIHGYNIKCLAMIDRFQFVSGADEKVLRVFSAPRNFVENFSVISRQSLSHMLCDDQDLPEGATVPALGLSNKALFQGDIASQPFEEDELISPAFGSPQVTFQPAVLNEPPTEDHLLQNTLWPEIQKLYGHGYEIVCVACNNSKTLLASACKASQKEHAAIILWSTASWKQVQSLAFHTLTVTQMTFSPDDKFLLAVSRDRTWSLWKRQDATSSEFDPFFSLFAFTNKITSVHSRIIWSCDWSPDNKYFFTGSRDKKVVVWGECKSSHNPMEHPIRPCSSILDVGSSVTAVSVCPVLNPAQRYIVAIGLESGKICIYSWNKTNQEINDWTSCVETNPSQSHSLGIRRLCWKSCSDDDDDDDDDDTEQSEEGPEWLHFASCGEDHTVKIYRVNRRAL
Put plainly: co-IP; lysate (RIPA with protease and phosphatase inhibitors) of MC3T3-E1 cells with high ELP2 expression; IgG control or Flag antibodies with protein A/G PLUS-Agarose overnight at 4°C; five washes with TBST; blot.

“NOD-like receptor thermal protein domain associated protein 3 (NLRP3) (from UniProt Q8R4B8 1-1033)”: the binding entry was “binds”.
